Data: the supplement of paper PMC4604168 (melanoma cell lines)
The list shows a part of the results. Many values rest on one well or one pass, so single values are uncertain.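 The apoptosis fraction was the count of cleaved-PARP antibody-stained nuclei relative to all DNA-stained nuclei, imaged in 1,536-well plates. Screening doses were set so most cells survived, and baseline and induced cleaved-PARP levels vary greatly across cell lines.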

system: G361; assay: cleaved PARP positive nuclei fraction relative to DMSO control; melanoma cells; higher = more apoptosis; details: library dose: low library concentration; 72 h

Row | Compound | cleaved PARP positive nuclei fraction [%]
1 | CC(C)C[C@H](NC(=O)[C@H](Cc1ccccc1)NC(=O)c1cnccn1)B(O)O [Bortezomib] + Cc1ccc(NC(=O)c2cccc(N(C)C)c2)cc1NC(=O)c1ccc(O)cc1 [ZM336372] (first compound 0.001 µM, partner dose 2 µM) | 2520
2 | CCCS(=O)(=O)Nc1ccc(F)c(C(=O)c2c[nH]c3ncc(Cl)cc23)c1F + CN(NC(=O)CC(=O)NN(C)C(=S)c1ccccc1)C(=S)c1ccccc1 [STA4783] (first compound 0.08 µM, partner dose 0.006 µM) | 159
3 | O=C(O)[C@@H]1[O][Sb](=[O])([O][Sb]2(=[O])[O][C@H]([C@H](O)CO)[C@H](O)[C@H](C(=O)O)[O]2)[O][C@H]([C@H](O)CO)[C@@H]1O (stereo not given in full) [stibogluconate] + C[C@@H]1CCN(C(=O)CC#N)C[C@@H]1N(C)c1ncnc2[nH]ccc12 [CP690550] (first compound 2 µM, partner dose 1 µM) | 64.2
4 | C=C(c1ccc(C(=O)O)cc1)c1cc2c(cc1C)C(C)(C)CCC2(C)C [Bexarotene] + Cc1ccc(NC(=O)c2cccc(N(C)C)c2)cc1NC(=O)c1ccc(O)cc1 [ZM336372] (first compound 2 µM, partner dose 2 µM) | 110
5 | Cc1cc(Nc2cc(N3CCN(C)CC3)nc(/C=C/c3ccccc3)n2)n[nH]1 + CO[C@@H]1[C@H](N(C)C(=O)c2ccccc2)C[C@H]2O[C@]1(C)n1c3ccccc3c3c4c(c5c6ccccc6n2c5c31)C(=O)NC4 [Midostaurin] (first compound 0.04 µM, partner dose 0.08 µM) | 235
